The structures appear in SMILES notation. ± gives the standard deviation of the averaged measurements. Whole data set: some 1,600 compounds, median “normalized growth (OD600, IQM-normalized) in LPM” near 1, cut for the lowest 2% near 0.014. The list shows a part of the results.

This assay relates to Salmonella enterica serovar Typhimurium SL1344. Briefly: normalized growth (OD600, IQM-normalized) in LPM (fraction of plate interquartile mean); higher = more bacterial growth (less inhibition). Conditions: LPM pH 5.8; 10 µM; 16 h.
Compound `CCn1cc(C(=O)O)c(=O)c2cc(F)c(N3CCNC(C)C3)c(F)c21` (centres undefined) showed a normalized growth of 0.0416 ± 0.00075. Next, `C[C@]12C=CC(=O)C=C1CC[C@@H]1[C@@H]2C(=O)C[C@@]2(C)[C@H]1CC[C@]2(O)C(=O)CO`: 1.04 ± 0.055; `CCOC(=O)CCC(=O)O[C@H]1[C@H](O[C@@H]2[C@@H](C)[C@H](O[C@H]3C[C@@](C)(OC)[C@@H](O)[C@H](C)O3)[C@@H](C)C(=O)O[C@H](CC)[C@@](C)(O)[C@H](O)[C@@H](C)C(=O)[C@H](C)C[C@@]2(C)O)O[C@H](C)C[C@@H]1N(C)C`: 1.14 ± 0.045.

As for `NS(=O)(=O)c1ccc(C(=O)O)cc1`, the normalized growth is 0.995 ± 0.082.

With `CCOc1ccccc1C(N)=O`, the normalized growth turned out to be 1.09 ± 0.023. The result for `CO[C@H]1C[C@@H]2CC[C@@H](C)[C@@](O)(O2)C(=O)C(=O)N2CCCC[C@H]2C(=O)O[C@H]([C@H](C)C[C@@H]2CC[C@@H](O)[C@H](OC)C2)CC(=O)[C@H](C)/C=C(\C)[C@@H](O)[C@@H](OC)C(=O)[C@H](C)C[C@H](C)/C=C/C=C/C=C/1C` reads 0.964 ± 0.048; that for `CC(=O)N1CCN(c2ccc(OCC3COC(Cn4ccnc4)(c4ccc(Cl)cc4Cl)O3)cc2)CC1` (centres undefined), 1 ± 0.049; that for `CC(C)NCC(O)c1ccc(NS(C)(=O)=O)cc1` (centres undefined), 0.992 ± 0.044.

As to `C#C[C@]1(O)CC[C@H]2[C@@H]3CCc4cc(OC)ccc4[C@H]3CC[C@@]21C`, the normalized growth was 0.923 ± 0.032. Next, `O=C(O)P(=O)(O)O`: 0.953 ± 0.027.

`CCCCCCCCCCCCCCCC[N+](C)(C)CCN(Cc1ccc(OC)cc1)c1ncccn1` showed a normalized growth of 1.11 ± 0.022.

`Cc1nc(C)c(Cl)c(O)c1Cl`: the normalized growth was determined as 1.12 ± 0.079. `CCN(CC)CCCC(C)Nc1c2ccc(Cl)cc2nc2ccc(OC)cc12` (centres undefined) registered a normalized growth of 1.06 ± 0.024. The result for `CNC(=C[N+](=O)[O-])NCCSCc1ccc(CN(C)C)o1` reads 0.873 ± 0.062; that for `COC(=O)[C@H]1[C@H]2C[C@@H]3c4[nH]c5cc(OC)ccc5c4CCN3C[C@H]2C[C@@H](OC(=O)c2cc(OC)c(OC)c(OC)c2)[C@@H]1OC`, 0.967 ± 0.021; that for `CCCc1nc(C)c2c(O)nc(-c3cc(S(=O)(=O)N4CCN(CC)CC4)ccc3OCC)nn12`, 1.02 ± 0.053. The result for `N[C@H](Cc1ccccc1)C(=O)O` reads 1.05 ± 0.055. Next, `CNC[C@H](O)c1cccc(O)c1`: 0.926 ± 0.14; `CCN(CC)CCNC(=O)c1ccc(NC(C)=O)cc1`: 0.921 ± 0.075; `CN1C(=O)CC(C)(c2ccccc2)C1=O` (centres undefined): 0.912 ± 0.037.

For the compound `CC(C)(CO)[C@@H](O)C(=O)NCCCO`, the normalized growth is 0.93 ± 0.017. Next, `CCOC(=O)[C@H](CCc1ccccc1)N[C@@H](C)C(=O)N1[C@H](C(=O)O)C[C@H]2CCCC[C@@H]21`: 1.02 ± 0.013; `OC[C@@H](O)[C@@H](O)CO`: 0.975 ± 0.05.

Consider `O=C1C(CC[S+]([O-])c2ccccc2)C(=O)N(c2ccccc2)N1c1ccccc1` (centres undefined), for which the normalized growth amounted to 1.097 ± 0.0059.

In turn, `NS(=O)(=O)c1cc2c(cc1Cl)N=C(CSCc1ccccc1)NS2(=O)=O` had a normalized growth of 0.981 ± 0.02.

`CC(=O)OC/C=C(C)/C=C/C=C(C)/C=C/C1=C(C)CCCC1(C)C` registered a normalized growth of 0.905 ± 0.06. The result for `CC(C)[C@@H]1CC[C@@H](C)C[C@H]1O` reads 0.973 ± 0.014; that for `C[C@@H]1CC(=O)NN=C1c1ccc(NN=C(C#N)C#N)cc1`, 0.868 ± 0.12. In turn, `O=C(O)Cc1ccccc1Nc1c(Cl)cccc1Cl` returned a normalized growth of 0.95 ± 0.039. Next, `C[C@@H](c1ncncc1F)[C@](O)(Cn1cncn1)c1ccc(F)cc1F`: 1.13 ± 0.051. `CC(C)Cc1ccc([C@H](C)C(=O)O)cc1` had a normalized growth of 0.923 ± 0.018. The result for `CS(=O)(=O)c1ccc([C@@H](O)[C@@H](CO)NC(=O)C(Cl)Cl)cc1` reads 0.934 ± 0.078.

Compound `O=c1[nH]cc(F)c(=O)[nH]1` came in with a normalized growth of 0.0109 ± 0.0049.

With `C[C@]12C=CC(=O)C=C1CC[C@@H]1[C@@H]2[C@@H](O)C[C@@]2(C)[C@H]1CC[C@]2(O)C(=O)CO`, the normalized growth was determined as 1.12 ± 0.07. In turn, `N=c1ccn2c(n1)O[C@H]1[C@H](O)[C@@H](CO)O[C@H]12` displayed a normalized growth of 1.2 ± 0.013.

Compound `CO[C@@]1(NC(=O)C2SC(=C(C(N)=O)C(=O)O)S2)C(=O)N2C(C(=O)O)=C(CSc3nnnn3C)CS[C@@H]21` (some centres undefined) returned a normalized growth of 0.00904 ± 0.00015. Next, `CN(C)CCCN1c2ccccc2CCc2ccc(Cl)cc21`: 0.998 ± 0.062; `Cc1cc(C(C)(C)CC(C)(C)C)ccc1OCCOCC[N+](C)(C)Cc1ccccc1`: 0.822 ± 0.098. Compound `Cc1cc(NC(=O)C2=C(O)c3ccccc3S(=O)(=O)N2C)no1` gave a normalized growth of 0.808 ± 0.063. `Nc1ccc(O)c(C(=O)O)c1` came in with a normalized growth of 0.961 ± 0.075.

In the case of `Clc1ccccc1CN1CCc2sccc2C1`, the normalized growth came out at 1.02 ± 0.037. The result for `CCC(=O)O[C@H](CC(=O)O)C[N+](C)(C)C` reads 1.05 ± 0.011. The result for `COC(=O)C1=C(C)NC(C)=C(C(=O)OC)C1c1ccccc1[N+](=O)[O-]` reads 0.787 ± 0.067; that for `O=C1CC[C@@H](C(=O)O)N1`, 0.932 ± 0.063; that for `C#C[C@]1(O)CC[C@H]2[C@@H]3CCC4=CC(=O)CC[C@@H]4[C@H]3CC[C@@]21C`, 0.98 ± 0.023.

Consider `CO[C@@]1(NC(=O)C(C(=O)O)c2ccc(O)cc2)C(=O)N2C(C(=O)O)=C(CSc3nnnn3C)CO[C@@H]21` (some centres undefined), for which the normalized growth was found to be 0.993 ± 0.045. The result for `Nc1ccc(S(=O)(=O)Nc2ncccn2)cc1` reads 0.991 ± 0.018.

With `C#C[C@]1(OC(C)=O)CC[C@H]2[C@@H]3CCC4=C[C@@H](OC(C)=O)CC[C@@H]4[C@H]3CC[C@@]21C`, the normalized growth came out at 0.991 ± 0.05. Next, `CO[C@H]1/C=C/O[C@@]2(C)Oc3c(C)c(O)c4c(O)c(c(/C=N/N5CCN(C)CC5)c(O)c4c3C2=O)NC(=O)/C(C)=C\C=C\[C@H](C)[C@H](O)[C@@H](C)[C@@H](O)[C@@H](C)[C@H](OC(C)=O)[C@@H]1C`: 0.0102 ± 0.00021.
